Results deposited as PubChem BioAssay AID504791 (Drosophila RNAi Screening Center, 2011).
Purpose: 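Genes whose knock-down strengthens or weakens small-RNA reporter silencing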 (primary screen). Cells: Drosophila S2-derived reporter cells. Reagent: long dsRNA against Drosophila genes, about 150-250 ng dsRNA per well (siRNA assay); about 80-120 ng (miRNA assay). Timing: about 5 days (siRNA assay); about 4 days (miRNA assay). Treatment: copper sulfate induction of reporters: 25 µM (siRNA assay); 200 mM stated (miRNA assay), 1-2 days before reading. Measurement: 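Per-well ratio of Renilla over firefly light, expressed relative to that plate's average ratio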. Reading the numbers: siRNA reporter hit score: higher = 3 marks a strong hit with raised ratio; -3 a strong hit with lowered ratio. Rule for the call: 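a well was a first-pass pick when its plate-scaled ratio rose above 1.5 (siRNA assay) or 1.6 (miRNA assay), or dropped below 0.6; a gene counted only if two separate dsRNAs agreed on retest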.
In all, the deposit lists about 23,000 reagents; below is a random part of those that have a named target and a result. Over the whole deposit, 199 (0.86%) got an active call. 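Plate-scaled ratios behind the calls are not deposited; printed light signals are raw; many rows marked increased or decreased are still called inactive.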 Names joined by + are all predicted targets of the reagent. No sequences are given here.

target gene,DRSC id,siRNA reporter hit score,stable siRNA reporter change,miRNA reporter change,"stable assay Renilla, run 1 (luminescence)","stable assay firefly, run 1 (luminescence)",Call
ecd (GeneID 38291),DRSC08574,,,,12019,3.47e5,inactive
CG31176 (GeneID 42554),DRSC15038,,,,6411,3.47e5,inactive
CG31176 (GeneID 42554),DRSC16021,,,,7110,3.30e5,inactive
CG14605 (GeneID 40867),DRSC12549,,,,6927,3.66e5,inactive
CG9568 (GeneID 34227),DRSC03265,,,,5214,4.91e5,inactive
TyrR (GeneID 42136),DRSC16242,,reporter ratio lowered past the hit cutoff,,6691,5.49e5,inactive
Coq7 + shf,DRSC18448,,,,6327,3.54e5,inactive
kis (GeneID 33185),DRSC00521,,,,6996,3.97e5,inactive
kis (GeneID 33185),DRSC00625,,,,5795,2.82e5,inactive
kis (GeneID 33185),DRSC00823,,,,10367,1.58e5,inactive
Cpr64Ab (GeneID 38509),DRSC08461,,,,5647,3.05e5,inactive
twin (GeneID 42880),DRSC15259,,,,7358,3.14e5,inactive
twin (GeneID 42880),DRSC15831,,,,7391,3.43e5,inactive
twin (GeneID 42880),DRSC21363,,,,7642,4.54e5,inactive
Rpt5 (GeneID 42805),DRSC16842,-3,reporter ratio raised past the hit cutoff,reporter ratio raised past the hit cutoff,6439,1.48e5,active
Rpt5 (GeneID 42805),DRSC26269,,,reporter ratio raised past the hit cutoff,,,active
wmd (GeneID 37727),DRSC04436,,,,1.68e5,3.07e5,inactive
CG14659 (GeneID 40604),DRSC12245,,,,7631,4.65e5,inactive
Prp38 (GeneID 35934),DRSC07060,,,,10112,4.89e5,inactive
BigH1 (GeneID 41780),DRSC15491,,,,9720,4.09e5,inactive
CheB53a (GeneID 3346205),DRSC06625,,,,6107,3.01e5,inactive
CG10801 (GeneID 31314),DRSC17761,,,,6227,3.48e5,inactive
CG6398 (GeneID 32761),DRSC19992,,,,8160,3.57e5,inactive
bur (GeneID 45830),DRSC03163,,,,8788,1.30e6,inactive
polyph (GeneID 36161),DRSC06254,,,,6287,3.49e5,inactive
CG4911 (GeneID 39043),DRSC10456,,,,9124,5.14e5,inactive
edl (GeneID 37149),DRSC06516,,,,10895,3.93e5,inactive
Fa2h (GeneID 35670),DRSC06608,,,,7431,4.31e5,inactive
Fa2h (GeneID 35670),DRSC06609,,,,6734,3.19e5,inactive
cic (GeneID 53560),DRSC14276,,,,5767,2.39e5,inactive
cic (GeneID 53560),DRSC15708,,,,5295,1.93e5,inactive
cic (GeneID 53560),DRSC16918,,,,6551,2.78e5,inactive
cic (GeneID 53560),DRSC21243,,,,6478,4.06e5,inactive
cic (GeneID 53560),DRSC23217,,,,5735,3.77e5,inactive
Frmd5 (GeneID 34398),DRSC02802,,,,6638,3.40e5,inactive
CycB3 (GeneID 42971),DRSC16618,,,,6600,3.24e5,inactive
CG18327 (GeneID 36567),DRSC06722,,,,5875,3.60e5,inactive
CG7544 (GeneID 36680),DRSC07023,,,,4519,3.80e5,inactive
msi (GeneID 43087),DRSC17003,,,,6075,3.32e5,inactive
Oseg1 (GeneID 38957),DRSC10776,,,,8239,4.76e5,inactive
CG13312 (GeneID 39010),DRSC09983,,,,6451,3.53e5,inactive
CaMKII (GeneID 43828),DRSC17214,,,,6814,3.46e5,inactive
CG31296 (GeneID 318668),DRSC13092,,,,5162,3.49e5,inactive
mRRF2 (GeneID 42670),DRSC16143,,,,6846,4.79e5,inactive
CG13679 (GeneID 38919),DRSC10037,,,,5035,3.87e5,inactive
CG13679 (GeneID 38919),DRSC22749,,,,3407,3.69e5,inactive
CG7945 + yellow-k,DRSC10851,,,,6511,4.26e5,inactive
snama (GeneID 37857),DRSC04049,,,,13506,1.56e6,inactive
EMC2B + EMC2A,DRSC15241,,,,5859,5.00e5,inactive
Ugt302K1 (GeneID 53502),DRSC16086,,,,5726,3.69e5,inactive
CG4661 (GeneID 32238),DRSC19910,,,,5495,5.15e5,inactive
CG32073 (GeneID 326191),DRSC09087,,,,4890,3.79e5,inactive
CG32073 (GeneID 326191),DRSC09894,,,,5583,4.03e5,inactive
Bbd (GeneID 37314),DRSC06709,,,,7795,4.15e5,inactive
CG33792 (GeneID 3772111),DRSC05355,,,,8282,5.19e5,inactive
CR18166 (GeneID 8673968),DRSC17260,,,,6335,3.80e5,inactive
CR18166 (GeneID 8673968),DRSC18147,,reporter ratio lowered past the hit cutoff,,6419,6.66e5,inactive
IleRS-m (GeneID 39762),DRSC10506,,,,7007,2.86e5,inactive

Targets listed so far whose target name begins with B or b:
target gene,DRSC id,siRNA reporter hit score,stable siRNA reporter change,miRNA reporter change,"stable assay Renilla, run 1 (luminescence)","stable assay firefly, run 1 (luminescence)",Call
BigH1 (GeneID 41780),DRSC15491,,,,9720,4.09e5,inactive
bur (GeneID 45830),DRSC03163,,,,8788,1.30e6,inactive
Bbd (GeneID 37314),DRSC06709,,,,7795,4.15e5,inactive

The list goes on:
target gene,DRSC id,siRNA reporter hit score,stable siRNA reporter change,miRNA reporter change,"stable assay Renilla, run 1 (luminescence)","stable assay firefly, run 1 (luminescence)",Call
Agpat3 (GeneID 39820),DRSC10445,,,,7939,2.75e5,inactive
Ada3 (GeneID 32787),DRSC20321,,,,5926,4.41e5,inactive
Ada3 (GeneID 32787),DRSC20322,,,,6902,5.07e5,inactive
upd2 (GeneID 32805),DRSC19969,,,,3168,3.28e5,inactive
Wdr33 (GeneID 40698),DRSC12162,,,,13213,5.68e5,inactive
CG11019 (retired record) (GeneID 50472),DRSC02117,,,,7566,4.03e5,inactive
Gfat2 (GeneID 43373),DRSC14598,,,,7978,4.13e5,inactive
bug (GeneID 36749),DRSC07137,,,,7794,2.90e5,inactive
Sr-CIV (GeneID 33576),DRSC00575,,,,7054,3.86e5,inactive
Trxr1 (GeneID 31760),DRSC18668,,,,7092,5.15e5,inactive
Trxr1 (GeneID 31760),DRSC22293,,,,8807,5.17e5,inactive
Hel25E (GeneID 33781),DRSC03342,,,,71011,4.13e5,inactive
RIOK1 (GeneID 39309),DRSC09853,,,,10189,4.86e5,inactive
Rrp42 (GeneID 36766),DRSC07161,,,,7215,2.99e5,inactive
nompC (GeneID 33768),DRSC03581,,,,8204,5.51e5,inactive
Su(z)2 (GeneID 36432),DRSC07558,,,reporter ratio lowered past the hit cutoff,4583,2.09e5,inactive
Su(z)2 (GeneID 36432),DRSC22970,,,,5683,4.10e5,inactive
CG11975 (GeneID 41074),DRSC14452,,,,9045,3.52e5,inactive
CG6738 (GeneID 42732),DRSC16104,,,,8534,3.82e5,inactive
CG13531 (GeneID 37627),DRSC04173,,,,6931,3.96e5,inactive
bib (GeneID 34330),DRSC03496,,,,37516,7.55e5,inactive
ppk18 (GeneID 34295),DRSC02216,,,,6799,3.70e5,inactive
Hr51 (GeneID 36702),DRSC06627,,,,5314,2.72e5,inactive
Hr51 (GeneID 36702),DRSC22829,,,,3615,3.62e5,inactive
hng3 (GeneID 38090),DRSC08367,,,,6075,3.45e5,inactive
CG14767 (GeneID 50250),DRSC06500,,,,7687,6.12e5,inactive
Vps33B (GeneID 43077),DRSC15722,,,,10032,6.45e5,inactive
nAChRalpha5 (GeneID 34826),DRSC01360,,,,6322,5.22e5,inactive
nAChRalpha5 (GeneID 34826),DRSC01946,,,,8059,5.20e5,inactive
nAChRalpha5 (GeneID 34826),DRSC01947,,,,4035,3.51e5,inactive
nAChRalpha5 (GeneID 34826),DRSC22785,,,,3263,4.55e5,inactive
CG5681 (GeneID 35074),DRSC02876,,,,7294,3.94e5,inactive
sick (GeneID 35277),DRSC02090,,,,6938,4.49e5,inactive
sick (GeneID 35277),DRSC02301,,,,6391,5.39e5,inactive
sick (GeneID 35277),DRSC02302,,,,5787,4.95e5,inactive
sick (GeneID 35277),DRSC02303,,reporter ratio lowered past the hit cutoff,reporter ratio lowered past the hit cutoff,4663,5.70e5,inactive
sick (GeneID 35277),DRSC02306,,,,8559,6.39e5,inactive
CG11134 (GeneID 32334),DRSC19384,,,,3627,3.61e5,inactive
CG15093 (GeneID 37166),DRSC06522,,,,9377,3.61e5,inactive
CCKLR-17D1 (GeneID 32860),DRSC20010,,,,5324,4.75e5,inactive
CCKLR-17D1 (GeneID 32860),DRSC20011,,,,6367,5.44e5,inactive
CCKLR-17D1 (GeneID 32860),DRSC20012,,,,5778,4.94e5,inactive
dpr10 (GeneID 39180),DRSC09015,,,,4215,3.22e5,inactive
dpr10 (GeneID 39180),DRSC09018,,,,5511,3.01e5,inactive
dpr10 (GeneID 39180),DRSC10159,,,,7019,4.10e5,inactive
dpr10 (GeneID 39180),DRSC10160,,,,6890,3.77e5,inactive
eIF3d2 (GeneID 41475),DRSC15651,,reporter ratio lowered past the hit cutoff,,4015,3.58e5,inactive
ssh (GeneID 42986),DRSC16730,,,,7826,3.15e5,inactive
ssh (GeneID 42986),DRSC28782,,,reporter ratio raised past the hit cutoff,,,inactive
